{"source": "PubChem BioAssay AID504793 (Drosophila RNAi Screening Center, 2011)", "test": "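Genes required for cells to halt at G2/M after double-strand DNA breaks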 (primary screen)", "cell system": "Drosophila S2R+ cells", "reagent": "long dsRNA against Drosophila genes, about 0.25 µg dsRNA per well", "timing": "4 days of dsRNA, then 4 hours of drug before read-out", "treatment": "doxorubicin 0.5 µM for 4 hours to cause double-strand breaks, in cells also given a low, harmless dose of dsRNA against nbs to sensitise the assay", "read-out": "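Mitotic index as the number of phospho-histone H3-positive cells in each well following doxorubicin, given as raw counts without normalisation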", "direction": "mitotic cells: higher = more cells in mitosis, weaker G2 arrest", "call rule": "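Genes are called active only when high mitotic counts were reproduced with independent dsRNAs and mitosis was checked for delay without damage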", "calls": "active = confirmed in follow-up tests; inactive = not confirmed", "note": "The screen tested about 23,000 reagents; below is a random part of those with a known target gene and a result. Over the whole deposit, 62 (0.27%) got an active call. 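Calls come from follow-up tests whose scores are not deposited, so confirmed genes may have low counts here; counts are not normalised per plate.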 Raw values vary from plate to plate and are shown uncorrected. Names joined by + are all predicted targets of the reagent."}
{"gene": "Tango9", "DRSC id": "DRSC14173", "mitotic cells, replicate 1": 7, "call": "inactive"}
{"gene": "Dg", "DRSC id": "DRSC06718", "mitotic cells, replicate 1": 6, "call": "inactive"}
{"gene": "CG11349", "DRSC id": "DRSC08179", "mitotic cells, replicate 1": 4, "call": "inactive"}
{"gene": "CG11349", "DRSC id": "DRSC27563", "mitotic cells, replicate 1": 9, "call": "inactive"}
{"gene": "PIG-S", "DRSC id": "DRSC14643", "mitotic cells, replicate 1": 5, "call": "inactive"}
{"gene": "PIG-S", "DRSC id": "DRSC15388", "mitotic cells, replicate 1": 12, "call": "inactive"}
{"gene": "PIG-S", "DRSC id": "DRSC15952", "mitotic cells, replicate 1": 4, "call": "inactive"}
{"gene": "CG31010", "DRSC id": "DRSC14006", "mitotic cells, replicate 1": 7, "call": "inactive"}
{"gene": "PIG-Wb", "DRSC id": "DRSC08526", "mitotic cells, replicate 1": 6, "call": "inactive"}
{"gene": "CG32152", "DRSC id": "DRSC22906", "mitotic cells, replicate 1": 14, "call": "inactive"}
{"gene": "Zasp67", "DRSC id": "DRSC10169", "mitotic cells, replicate 1": 5, "call": "inactive"}
{"gene": "Zasp67", "DRSC id": "DRSC24457", "mitotic cells, replicate 1": 6, "call": "inactive"}
{"gene": "AANATL7", "DRSC id": "DRSC18616", "mitotic cells, replicate 1": 9, "call": "inactive"}
{"gene": "KdelR", "DRSC id": "DRSC03353", "mitotic cells, replicate 1": 3, "call": "inactive"}
{"gene": "CG17298", "DRSC id": "DRSC15221", "mitotic cells, replicate 1": 7, "call": "inactive"}
{"gene": "CG17298", "DRSC id": "DRSC27897", "mitotic cells, replicate 1": 6, "call": "inactive"}
{"gene": "Spase22-23", "DRSC id": "DRSC15857", "mitotic cells, replicate 1": 9, "call": "inactive"}
{"gene": "RpL29", "DRSC id": "DRSC04650", "mitotic cells, replicate 1": 11, "call": "inactive"}
{"gene": "raptor", "DRSC id": "DRSC18359", "mitotic cells, replicate 1": 12, "call": "inactive"}
{"gene": "CG43394", "DRSC id": "DRSC01013", "mitotic cells, replicate 1": 6, "call": "inactive"}
{"gene": "CG43394", "DRSC id": "DRSC28255", "mitotic cells, replicate 1": 1, "call": "inactive"}
{"gene": "CG14309", "DRSC id": "DRSC14788", "mitotic cells, replicate 1": 9, "call": "inactive"}
{"gene": "CG13067", "DRSC id": "DRSC09950", "mitotic cells, replicate 1": 7, "call": "inactive"}
{"gene": "CG11889 + CG11891", "DRSC id": "DRSC14426", "mitotic cells, replicate 1": 11, "call": "inactive"}
{"gene": "CG11889 + CG11891", "DRSC id": "DRSC14427", "mitotic cells, replicate 1": 9, "call": "inactive"}
{"gene": "CG11889 + CG11891", "DRSC id": "DRSC25728", "mitotic cells, replicate 1": 7, "call": "inactive"}
{"gene": "TP53INP", "DRSC id": "DRSC08178", "mitotic cells, replicate 1": 9, "call": "inactive"}
{"gene": "TP53INP", "DRSC id": "DRSC22552", "mitotic cells, replicate 1": 12, "call": "inactive"}
{"gene": "TP53INP", "DRSC id": "DRSC25638", "mitotic cells, replicate 1": 3, "call": "inactive"}
{"gene": "Klp10A", "DRSC id": "DRSC19601", "mitotic cells, replicate 1": 20, "call": "inactive"}
{"gene": "Klp10A", "DRSC id": "DRSC24185", "mitotic cells, replicate 1": 14, "call": "inactive"}
{"gene": "Cyp6a2", "DRSC id": "DRSC05014", "mitotic cells, replicate 1": 7, "call": "inactive"}
{"gene": "Cyp6a2", "DRSC id": "DRSC24091", "mitotic cells, replicate 1": 2, "call": "inactive"}
{"gene": "Jhbp3", "DRSC id": "DRSC12247", "mitotic cells, replicate 1": 5, "call": "inactive"}
{"gene": "CG7322", "DRSC id": "DRSC20036", "mitotic cells, replicate 1": 7, "call": "inactive"}
{"gene": "CG7322", "DRSC id": "DRSC26735", "mitotic cells, replicate 1": 6, "call": "inactive"}
{"gene": "snRNA:U11", "DRSC id": "DRSC36526", "mitotic cells, replicate 1": 13, "call": "inactive"}
{"gene": "GCC88", "DRSC id": "DRSC14264", "mitotic cells, replicate 1": 4, "call": "inactive"}
{"gene": "GCC88", "DRSC id": "DRSC29299", "mitotic cells, replicate 1": 7, "call": "inactive"}
{"gene": "Cat", "DRSC id": "DRSC11110", "mitotic cells, replicate 1": 8, "call": "inactive"}
{"gene": "Cat", "DRSC id": "DRSC24077", "mitotic cells, replicate 1": 4, "call": "inactive"}
{"gene": "brv1", "DRSC id": "DRSC11076", "call": "inactive"}
{"gene": "Best2", "DRSC id": "DRSC09712", "mitotic cells, replicate 1": 4, "call": "inactive"}

A portion from the list above, for reference:
{"gene": "Cat", "DRSC id": "DRSC24077", "mitotic cells, replicate 1": 4, "call": "inactive"}
{"gene": "brv1", "DRSC id": "DRSC11076", "call": "inactive"}
